Measurements: publication PMC10177021

Amino acid sequences for entries named in this document (tags omitted). A change or cut given only in a name is not applied to a line headed by its entry. Residues count along the entry.
UniProt P97772, residues 21-1199: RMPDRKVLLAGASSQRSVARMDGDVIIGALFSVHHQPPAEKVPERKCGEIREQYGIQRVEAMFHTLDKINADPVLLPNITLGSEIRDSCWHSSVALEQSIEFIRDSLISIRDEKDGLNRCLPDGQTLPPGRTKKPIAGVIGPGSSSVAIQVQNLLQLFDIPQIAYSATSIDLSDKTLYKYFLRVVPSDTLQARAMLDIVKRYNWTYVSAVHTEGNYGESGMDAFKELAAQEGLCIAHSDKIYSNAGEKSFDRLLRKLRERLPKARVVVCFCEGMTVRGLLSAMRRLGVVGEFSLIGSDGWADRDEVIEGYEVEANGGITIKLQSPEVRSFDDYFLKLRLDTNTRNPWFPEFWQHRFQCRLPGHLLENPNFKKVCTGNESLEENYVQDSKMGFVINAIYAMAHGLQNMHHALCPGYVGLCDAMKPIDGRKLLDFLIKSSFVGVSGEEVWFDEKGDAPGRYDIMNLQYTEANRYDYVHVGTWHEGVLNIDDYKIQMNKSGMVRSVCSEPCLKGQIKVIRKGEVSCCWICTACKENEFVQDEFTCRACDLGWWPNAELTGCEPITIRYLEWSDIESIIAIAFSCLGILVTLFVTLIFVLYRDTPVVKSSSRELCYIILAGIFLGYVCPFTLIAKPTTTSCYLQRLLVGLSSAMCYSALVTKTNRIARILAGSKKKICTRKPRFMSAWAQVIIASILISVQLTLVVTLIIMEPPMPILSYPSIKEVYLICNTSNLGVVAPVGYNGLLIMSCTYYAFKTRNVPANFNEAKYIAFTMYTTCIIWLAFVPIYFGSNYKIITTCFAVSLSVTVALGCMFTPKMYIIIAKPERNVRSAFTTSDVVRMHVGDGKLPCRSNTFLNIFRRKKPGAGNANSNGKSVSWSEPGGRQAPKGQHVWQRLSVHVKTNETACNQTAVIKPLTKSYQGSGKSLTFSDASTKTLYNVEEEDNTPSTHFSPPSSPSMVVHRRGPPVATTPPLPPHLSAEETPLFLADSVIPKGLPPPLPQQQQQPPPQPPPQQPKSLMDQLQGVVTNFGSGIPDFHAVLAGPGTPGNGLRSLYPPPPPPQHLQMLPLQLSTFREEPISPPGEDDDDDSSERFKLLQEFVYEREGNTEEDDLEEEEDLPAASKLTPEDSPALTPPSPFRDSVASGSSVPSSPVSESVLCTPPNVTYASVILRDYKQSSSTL
UniProt P28652: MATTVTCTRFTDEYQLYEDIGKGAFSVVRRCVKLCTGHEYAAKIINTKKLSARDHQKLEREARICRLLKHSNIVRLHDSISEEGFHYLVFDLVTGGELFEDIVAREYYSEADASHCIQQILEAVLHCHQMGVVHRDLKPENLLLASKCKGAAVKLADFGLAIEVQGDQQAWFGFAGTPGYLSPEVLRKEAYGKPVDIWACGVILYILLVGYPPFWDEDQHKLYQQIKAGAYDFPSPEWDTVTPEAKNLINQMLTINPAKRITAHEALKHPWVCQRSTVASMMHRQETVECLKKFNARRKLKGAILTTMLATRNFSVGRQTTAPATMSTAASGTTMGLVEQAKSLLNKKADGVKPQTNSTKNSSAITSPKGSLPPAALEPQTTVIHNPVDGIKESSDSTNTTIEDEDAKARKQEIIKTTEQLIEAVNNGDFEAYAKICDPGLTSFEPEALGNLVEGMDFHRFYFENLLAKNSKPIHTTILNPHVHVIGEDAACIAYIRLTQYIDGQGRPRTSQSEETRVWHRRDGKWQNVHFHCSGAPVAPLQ
UniProt P46097: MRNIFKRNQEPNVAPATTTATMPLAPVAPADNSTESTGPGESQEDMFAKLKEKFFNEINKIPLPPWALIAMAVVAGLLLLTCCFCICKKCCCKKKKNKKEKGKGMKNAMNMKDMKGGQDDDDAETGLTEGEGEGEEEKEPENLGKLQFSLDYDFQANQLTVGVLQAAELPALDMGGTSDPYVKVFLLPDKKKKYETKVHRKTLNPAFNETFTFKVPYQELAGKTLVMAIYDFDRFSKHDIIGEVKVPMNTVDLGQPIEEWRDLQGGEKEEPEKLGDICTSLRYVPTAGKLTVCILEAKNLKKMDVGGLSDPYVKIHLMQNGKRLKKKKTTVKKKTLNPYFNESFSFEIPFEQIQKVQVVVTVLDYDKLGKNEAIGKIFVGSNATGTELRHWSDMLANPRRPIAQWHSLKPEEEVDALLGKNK
UniProt P97445: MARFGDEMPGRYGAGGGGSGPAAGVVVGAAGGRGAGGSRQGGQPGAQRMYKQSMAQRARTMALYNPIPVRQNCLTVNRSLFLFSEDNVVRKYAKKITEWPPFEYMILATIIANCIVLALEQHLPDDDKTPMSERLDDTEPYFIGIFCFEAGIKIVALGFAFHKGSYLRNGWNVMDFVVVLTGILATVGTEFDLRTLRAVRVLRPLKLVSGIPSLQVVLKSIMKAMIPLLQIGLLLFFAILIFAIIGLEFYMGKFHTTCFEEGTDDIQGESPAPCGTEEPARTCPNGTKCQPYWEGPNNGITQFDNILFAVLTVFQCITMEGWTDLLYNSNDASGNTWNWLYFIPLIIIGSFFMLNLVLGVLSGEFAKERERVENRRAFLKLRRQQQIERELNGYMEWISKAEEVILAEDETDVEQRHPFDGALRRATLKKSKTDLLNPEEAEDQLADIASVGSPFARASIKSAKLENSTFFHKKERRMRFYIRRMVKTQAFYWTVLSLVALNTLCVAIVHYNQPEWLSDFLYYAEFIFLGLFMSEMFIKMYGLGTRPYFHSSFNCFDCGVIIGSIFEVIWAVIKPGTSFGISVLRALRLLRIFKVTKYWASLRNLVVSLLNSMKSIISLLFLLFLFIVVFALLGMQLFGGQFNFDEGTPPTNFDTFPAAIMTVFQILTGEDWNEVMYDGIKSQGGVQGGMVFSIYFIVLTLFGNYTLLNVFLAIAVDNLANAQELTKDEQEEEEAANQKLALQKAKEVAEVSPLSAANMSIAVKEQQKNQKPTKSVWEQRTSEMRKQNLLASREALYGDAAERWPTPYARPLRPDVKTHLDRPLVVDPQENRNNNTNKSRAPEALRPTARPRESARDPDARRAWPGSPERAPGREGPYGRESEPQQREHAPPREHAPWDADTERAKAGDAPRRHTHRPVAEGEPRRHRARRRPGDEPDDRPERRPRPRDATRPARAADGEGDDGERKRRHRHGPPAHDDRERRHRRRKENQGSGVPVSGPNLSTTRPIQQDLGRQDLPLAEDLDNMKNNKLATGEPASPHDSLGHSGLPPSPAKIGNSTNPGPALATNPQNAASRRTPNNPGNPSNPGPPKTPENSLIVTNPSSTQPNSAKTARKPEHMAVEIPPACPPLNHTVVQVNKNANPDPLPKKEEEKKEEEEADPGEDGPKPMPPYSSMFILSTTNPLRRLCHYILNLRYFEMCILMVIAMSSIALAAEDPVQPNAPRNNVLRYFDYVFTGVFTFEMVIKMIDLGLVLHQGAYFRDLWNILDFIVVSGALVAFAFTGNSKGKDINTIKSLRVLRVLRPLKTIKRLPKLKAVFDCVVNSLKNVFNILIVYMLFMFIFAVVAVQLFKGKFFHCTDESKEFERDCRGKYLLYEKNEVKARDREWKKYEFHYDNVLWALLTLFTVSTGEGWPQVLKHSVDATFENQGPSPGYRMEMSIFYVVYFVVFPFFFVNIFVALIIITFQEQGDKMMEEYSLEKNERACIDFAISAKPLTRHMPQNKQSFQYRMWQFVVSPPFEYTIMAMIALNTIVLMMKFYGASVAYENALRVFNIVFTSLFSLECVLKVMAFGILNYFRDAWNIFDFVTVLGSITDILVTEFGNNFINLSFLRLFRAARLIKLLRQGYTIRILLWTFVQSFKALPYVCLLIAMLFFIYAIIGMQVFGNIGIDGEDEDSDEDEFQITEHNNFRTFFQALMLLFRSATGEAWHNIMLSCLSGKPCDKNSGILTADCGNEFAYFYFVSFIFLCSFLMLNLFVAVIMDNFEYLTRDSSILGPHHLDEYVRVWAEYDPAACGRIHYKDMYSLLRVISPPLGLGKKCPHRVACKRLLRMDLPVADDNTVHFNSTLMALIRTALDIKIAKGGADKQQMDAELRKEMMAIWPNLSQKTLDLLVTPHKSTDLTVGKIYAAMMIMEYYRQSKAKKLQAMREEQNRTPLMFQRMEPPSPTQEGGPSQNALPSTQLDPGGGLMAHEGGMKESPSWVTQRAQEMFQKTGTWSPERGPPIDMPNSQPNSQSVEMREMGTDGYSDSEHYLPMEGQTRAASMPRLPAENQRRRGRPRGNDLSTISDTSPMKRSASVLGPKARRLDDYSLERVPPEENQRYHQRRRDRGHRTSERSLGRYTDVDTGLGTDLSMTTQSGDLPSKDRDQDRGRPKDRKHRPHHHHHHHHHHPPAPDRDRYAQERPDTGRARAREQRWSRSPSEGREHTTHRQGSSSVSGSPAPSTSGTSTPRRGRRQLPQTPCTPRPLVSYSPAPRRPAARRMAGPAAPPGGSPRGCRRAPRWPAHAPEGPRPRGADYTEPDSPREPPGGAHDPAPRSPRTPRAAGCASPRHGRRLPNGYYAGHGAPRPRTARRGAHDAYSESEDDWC
UniProt Q3UVX5, residues 19-1203: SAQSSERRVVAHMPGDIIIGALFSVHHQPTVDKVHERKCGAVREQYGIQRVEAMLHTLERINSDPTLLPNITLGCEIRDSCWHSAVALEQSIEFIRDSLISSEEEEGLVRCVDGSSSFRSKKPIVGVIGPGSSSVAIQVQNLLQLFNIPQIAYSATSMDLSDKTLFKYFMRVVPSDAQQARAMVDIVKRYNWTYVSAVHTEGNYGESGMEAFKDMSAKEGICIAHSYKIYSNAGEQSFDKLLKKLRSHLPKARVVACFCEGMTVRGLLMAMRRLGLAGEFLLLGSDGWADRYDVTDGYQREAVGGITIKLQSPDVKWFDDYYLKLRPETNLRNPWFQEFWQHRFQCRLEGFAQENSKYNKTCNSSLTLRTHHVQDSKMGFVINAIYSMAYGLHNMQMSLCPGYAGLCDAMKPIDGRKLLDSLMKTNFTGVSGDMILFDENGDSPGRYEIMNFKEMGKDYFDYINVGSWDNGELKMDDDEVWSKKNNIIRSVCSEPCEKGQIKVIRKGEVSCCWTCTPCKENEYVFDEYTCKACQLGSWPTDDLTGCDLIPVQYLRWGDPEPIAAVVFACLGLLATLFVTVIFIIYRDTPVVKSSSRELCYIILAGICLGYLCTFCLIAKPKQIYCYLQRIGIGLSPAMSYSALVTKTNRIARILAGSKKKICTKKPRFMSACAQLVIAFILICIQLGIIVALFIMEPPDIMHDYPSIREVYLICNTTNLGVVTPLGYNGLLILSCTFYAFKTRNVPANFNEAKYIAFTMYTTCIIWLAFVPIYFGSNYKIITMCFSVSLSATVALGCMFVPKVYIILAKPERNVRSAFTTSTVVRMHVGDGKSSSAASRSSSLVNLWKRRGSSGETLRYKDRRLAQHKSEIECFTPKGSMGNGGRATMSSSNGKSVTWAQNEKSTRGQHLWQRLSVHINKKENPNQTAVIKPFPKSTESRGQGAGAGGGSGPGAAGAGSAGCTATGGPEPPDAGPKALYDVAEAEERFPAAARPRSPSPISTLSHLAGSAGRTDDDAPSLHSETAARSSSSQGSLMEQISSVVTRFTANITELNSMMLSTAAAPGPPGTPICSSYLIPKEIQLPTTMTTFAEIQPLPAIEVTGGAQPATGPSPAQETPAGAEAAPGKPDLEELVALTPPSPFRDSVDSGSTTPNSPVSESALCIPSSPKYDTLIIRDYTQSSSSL

Target: metabotropic glutamate receptor 1, mGlu1α variant (mouse (endogenous in cerebellum)) (UniProt P97772)
Test: affinity purification with mass spectrometry; mGlu1α immunoprecipitated with Af811-1 (three replicates) or Af660-1 (three replicates) and Dynabeads Protein-A from detergent lysates (0.5% deoxycholate, 1% NP-40, 0.1% SDS) of the mouse cerebellar P2 fraction; LC-MS/MS of eluates; proteins also found from Grm1-KO lysates removed

**Q.** “protein kinase C γ type (from UniProt P63318 1-697) (enzyme)” was tested. Which binding did it give?
**A.** The binding was “binds”.

**Q.** “calcium/calmodulin-dependent protein kinase type II subunit β (from UniProt P28652 1-542) (enzyme)” was tested. Which binding did it give?
**A.** Its binding is “binds”.

**Q.** “synaptotagmin-2 (from UniProt P46097 1-422)” was tested. Which binding did it give?
**A.** The binding was “binds”.

**Q.** How did the binding turn out when “CaV2.1 calcium channels (from UniProt P97445 1-2368)” was run?
**A.** Its binding is “binds”.

**Q.** Which binding does the source give for “metabotropic glutamate receptor 5 (from UniProt Q3UVX5 19-1203)” here?
**A.** Its binding is “binds”.

**Q.** With “inositol 1,4,5-trisphosphate receptor type 1 (from UniProt P11881-1 1-2749)” as the molecule, how does the binding read?
**A.** The binding was “binds”.

**Q.** “sodium/potassium-transporting ATPase subunit α-2 (from UniProt Q6PIE5 1-1020)” was tested. Which binding did it give?
**A.** Its binding is “binds”.

B1: excitatory amino acid transporter 4 (protein, UniProt O35544 1-561)
chain: MSSHGNSLFLRESGAGGGCLQGLQDSLQQRALRTRLRLQTMTREHVRRFLRRNAFILLTVSAVIIGVSLAFALRPYQLSYRQIKYFSFPGELLMRMLQMLVLPLIVSSLVTGMASLDNKATGRMGMRAAVYYMVTTVIAVFIGILMVTIIHPGKGSKEGLHREGRIETVPTADAFMDLVRNMFPPNLVEACFKQFKTQYSTRVVTRTIVRTDNGSELGASMSPTSSVENETSILENVTRALGTLQEVISFEETVPVPGSANGINALGLVVFSVAFGLVIGGMKHKGRVLRDFFDSLNEAIMRLVGIIIWYAPVGILFLIAGKILEMEDMAVLGGQLGMYTLTVIVGLFLHAGGVLPLIYFLVTHRNPFPFIGGMLQALITAMGTSSSSATLPITFRCLEEGLGVDRRITRFVLPVGATVNMDGTALYEALAAIFIAQVNNYELNLGQITTISITATAASVGAAGIPQAGLVTMVIVLTSVGLPTEDITLIIAVDWFLDRLRTMTNVLGDSIGAAVIEHLSQRELELQEAELTLPSLGKPYKSLMAQEKGASRGRGGNESVM
**Q.** B1 was tested. Which binding did it give?
**A.** The binding was “binds”.

B2: glutamate receptor ionotropic, δ-2 (receptor, UniProt Q61625 24-1007)
chain: DSIIHIGAIFDESAKKDDEVFRTAVGDLNQNEEILQTEKITFSVTFVDGNNPFQAVQEACELMNQGILALVSSIGCTSAGSLQSLADAMHIPHLFIQRSTAGTPRSGCGLTRSNRNDDYTLSVRPPVYLNEVILRVVTEYAWQKFIIFYDSEYDIRGIQEFLDKVSQQGMDVALQKVENNINKMITTLFDTMRIEELNRYRDTLRRAILVMNPATAKSFISEVVETNLVAFDCHWIIINEEINDVDVQELVRRSIGRLTIIRQTFPVPQNISQRCFRGNHRISSSLCDPKDPFAQNMEISNLYIYDTVLLLANAFHKKLEDRKWHSMASLSCIRKNSKPWQGGRSMLETIKKGGVNGLTGDLEFGENGGNPNVHFEILGTNYGEELGRGVRKLGCWNPVTGLNGSLTDKKLENNMRGVVLRVVTVLEEPFVMVSENVLGKPKKYQGFSIDVLDALSNYLGFNYEIYVAPDHKYGSPQEDGTWNGLVGELVFKRADIGISALTITPDRENVVDFTTRYMDYSVGVLLRRAEKTVDMFACLAPFDLSLWACIAGTVLLVGLLVYLLNWLNPPRLQMGSMTSTTLYNSMWFVYGSFVQQGGEVPYTTLATRMMMGAWWLFALIVISSYTANLAAFLTITRIESSIQSLQDLSKQTDIPYGTVLDSAVYQHVRMKGLNPFERDSMYSQMWRMINRSNGSENNVLESQAGIQKVKYGNYAFVWDAAVLEYVAINDPDCSFYTVGNTVADRGYGIALQHGSPYRDVFSQRILELQQSGDMDILKHKWWPKNGQCDLYSSVDAKQKGGALDIKSLAGVFCILAAGIVLSCLIAVLETWWSRRKGSRVPSKEDDKEIDLEHLHRRVNSLCTDDDSPHKQFSTSSIDLTPLDIDTLPTRQALEQISDFRNTHITTTTFIPEQIQTLSRTLSAKAASGFAFGSVPEHRTGPFRHRAPNGGFFRSPIKTMSSIPYQPTPTLGLNLGNDPDRGTSI
**Q.** B2 was tested. Which binding did it give?
**A.** Its binding is “binds”.

B3: homer protein homolog 3 (protein, UniProt Q99JP6-2 1-359)
chain: MSTAREQPIFSTRAHVFQIDPTTKRNWIPAGKHALTVSYFYDATRNVYRIISIGGAKAIINSTVTPNMTFTKTSQKFGQWADSRANTVYGLGFASEQQLTQFAEKFQEVKEAARLAREKSQDGGEFTSTGLALASHQVPPSPLVSTNGPGEEKLFRSQSADTPGPTERERLKKMLSEGSVGEVQWEAEFFALQDSNQRLAGALREANAAATQWRQQLEVQRAEAELLRQRVAELEAQVAVEPVRAGEKEATSQSVEQLEARVQTKDQEIQTLKNQSTGTREAPDTAEREETQQQVQDLETRNAELEQQLRSMECNLEEARAERERARAEVGRAAQLLDVRLFELSELREGLARLAEAAP
**Q.** How did the binding turn out when B3 was run?
**A.** The binding was “binds”.

B4: 2′,3′-cyclic-nucleotide 3′-phosphodiesterase (enzyme, UniProt P16330-2 1-400)
chain: MSSSGAKEKPELQFPFLQDEDTVATLHECKTLFILRGLPGSGKSTLARLILEKYHDGTKMVSADAYKIIPGSRADFSEAYKRLDEDLAGYCRRDIRVLVLDDTNHERERLDQLFEMADQYQYQVVLVEPKTAWRLDCAQLKEKNQWQLSADDLKKLKPGLEKDFLPLYFGWFLTKKSSETLRKAGQVFLEELGNHKAFKKELRHFISGDEPKEKLELVSYFGKRPPGVLHCTTKFCDYGKAAGAEEYAQQEVVKRSYGKAFKLSISALFVTPKTAGAQVVLTDQELQLWPSDLDKPSASEGLPPGSRAHVTLGCAADVQPVQTGLDLLDILQQVKGGSQGEAVGELPRGKLYSLGKGRWMLSLTKKMEVKAIFTGYYGKGKPVPIHGSRKGGAMQICTII
**Q.** B4 was tested. Which binding did it give?
**A.** The binding was “binds”.

B5: ATP synthase subunit γ, mitochondrial (protein, UniProt Q91VR2 26-298)
chain: ATLKDITRRLKSIKNIQKITKSMKMVAAAKYARAERELKPARVYGTGSLALYEKADIKAPEDKKKHLIIGVSSDRGLCGAIHSSVAKQMKNEVAALTAAGKEVMIVGVGEKIKGILYRTHSDQFLVSFKDVGRKPPTFGDASVIALELLNSGYEFDEGSIIFNQFKSVISYKTEEKPIFSLNTIATAETMSIYDDIDADVLQNYQEYNLANLIYYSLKESTTSEQSARMTAMDNASKNASDMIDKLTLTFNRTRQAVITKELIEIISGAAALD
**Q.** With B5 as the molecule, how does the binding read?
**A.** The binding was “binds”.

B6: phosphate carrier protein, mitochondrial (protein, UniProt Q8VEM8 46-357)
chain: AVEEYSCEFGSMKYYALCGFGGVLSCGLTHTAVVPLDLVKCRMQVDPQKYKGIFNGFSITLKEDGVRGLAKGWAPTLIGYSMQGLCKFGFYEVFKALYSNILGEENTYLWRTSLYLASSASAEFFADIALAPMEAAKVRIQTQPGYANTLREAVPKMYKEEGLNAFYKGVAPLWMRQIPYTMMKFACFERTVEALYKFVVPKPRSECTKAEQLVVTFVAGYIAGVFCAIVSHPADSVVSVLNKEKGSTASQVLQRLGFRGVWKGLFARIIMIGTLTALQWFIYDSVKVYFRLPRPPPPEMPESLKKKLGLTE
**Q.** How did the binding turn out when B6 was run?
**A.** Its binding is “binds”.

B7: ADP/ATP translocase 1 (protein, UniProt P48962 1-298)
chain: MGDQALSFLKDFLAGGIAAAVSKTAVAPIERVKLLLQVQHASKQISAEKQYKGIIDCVVRIPKEQGFLSFWRGNLANVIRYFPTQALNFAFKDKYKQIFLGGVDRHKQFWRYFAGNLASGGAAGATSLCFVYPLDFARTRLAADVGKGSSQREFNGLGDCLTKIFKSDGLKGLYQGFSVSVQGIIIYRAAYFGVYDTAKGMLPDPKNVHIIVSWMIAQSVTAVAGLVSYPFDTVRRRMMMQSGRKGADIMYTGTLDCWRKIAKDEGANAFFKGAWSNVLRGMGGAFVLVLYDEIKKYV
**Q.** Which binding does the source give for B7 here?
**A.** Its binding is “binds”.

B8: 14-3-3 protein γ (protein, UniProt P61982 1-247)
chain: MVDREQLVQKARLAEQAERYDDMAAAMKNVTELNEPLSNEERNLLSVAYKNVVGARRSSWRVISSIEQKTSADGNEKKIEMVRAYREKIEKELEAVCQDVLSLLDNYLIKNCSETQYESKVFYLKMKGDYYRYLAEVATGEKRATVVESSEKAYSEAHEISKEHMQPTHPIRLGLALNYSVFYYEIQNAPEQACHLAKTAFDDAIAELDTLNEDSYKDSTLIMQLLRDNLTLWTSDQQDDDGGEGNN
**Q.** Which binding does the source give for B8 here?
**A.** Its binding is “binds”.

B9: 14-3-3 protein θ (protein, UniProt P68254-1 1-245)
chain: MEKTELIQKAKLAEQAERYDDMATCMKAVTEQGAELSNEERNLLSVAYKNVVGGRRSAWRVISSIEQKTDTSDKKLQLIKDYREKVESELRSICTTVLELLDKYLIANATNPESKVFYLKMKGDYFRYLAEVACGDDRKQTIENSQGAYQEAFDISKKEMQPTHPIRLGLALNFSVFYYEILNNPELACTLAKTAFDEAIAELDTLNEDSYKDSTLIMQLLRDNLTLWTSDSAGEECDAAEGAEN
**Q.** For B9, which binding is on record?
**A.** The binding was “binds”.

B10: inositol polyphosphate-5-phosphatase A (enzyme, UniProt Q7TNC9-2 1-422)
chain: MAGKAAAPGTAVLLVTANVGSLFDDPENLQKNWLREFYQVLHTHKPHFMALHCQEFGGKNYEASMSHVDKFVKELLSSDAMKEYNRARVYLDENYKSQEHFTALGSFYFLHESLKNIYQFDFKAKKYKKVTGKEIYSDTLESTPMLEKEKFPQDYFPECKWSRKGFIRTRWCIADCAFDLVNIHLFHDASNLVAWETSPSVYSGVRHKALGYVLDRIIDQRFEKVSYFVFGDFNFRLDSKSVVETLCTKATMQTVRAADTNEVVKLIFRESDNDRKVVLQLEKKLFDYFNQDVFRDNNGTALLEFDKELSVFKDRLYELDISFPPSYPYSEDSSQGEQYMNTRCPAWCDRILMSLSAKELVLKSESEEKVATYDHIGPNVCMGDHKPVFLAFRIAPGAGKRCQRRERILERPPCSSVSNSSS
**Q.** With B10 as the molecule, how does the binding read?
**A.** Its binding is “binds”.

B11: short Transient Receptor Potential Cation channel C3 (protein, UniProt Q9QZC1 1-910)
chain: MSTKVKKCREPARVTLPAPEEEEDGEAEGGESQRRRRGWRGVNGGLEPPCPRAPPSPGPDASSEGSPSRWRTAGMRDKGRRQAVRGPAFMFGARGPSLTAEEERFLDAAEYGNIPVVRKMLEESRTLNVNCVDYMGQNALQLAVGNEHLEVTELLLKKENLARIGDALLLAISKGYVRIVEAILGHPGFAASRRLTLSPCEQELRDDDFYAYDEDGTRFSPDITPIILAAHCHKYEVVHLLLLKGARIERPHDYFCRCSDCAEKQRLDAFSHSRSRINAYKGLASPAYLSLSSEDPVLTALELSNELAKLANIEKEFKNDYRKLSMQCKDFVVGVLDLCRDSEEVEAILNGDLESAEPLERHGHKASLSRVKLAIKYEVKKFVAHPNCQQQLLTIWYENLSGLREQTIAIKCLVVLVVALGLPFLAIGYWIAPCSRLGKILRSPFMKFVAHAASFIIFLGLLVFNASDRFEGITTLPNITVIDYPKQIFRVKTTQFTWTEMLIMVWVLGMMWSECKELWLEGPREYIVQLWNVLDFGMLSIFIAAFTARFLAFLQATKAQQYVDSHVQESDLSEVTLPPEVQYFTYARDKWLPSDPQIISEGLYAIAVVLSFSRIAYILPANESFGPLQISLGRTVKDIFKFMVLFIMVFLAFMIGMFILYSYYLGAKVNPAFTTVEESFKTLFWSIFGLSEVTSVVLKYDHKFIENIGYVLYGIYNVTMVVVLLNMLIAMINSSYQEIEDDSDVEWKFARSKLWLSYFDDGKTLPPPFSLVPSPKSFVYFIMRITNFSKCRRRRLQKDLELGMGNSKSRLNLFTQSNSRVFESHSFNSILNQPTRYQQIMKRLIKRYVLKAQVDKENDEVNEGELKEIKQDISSLRYELLEDKSQATEELAILIHKLSEKLNPSVLRCE
**Q.** Which binding does the source give for B11 here?
**A.** The binding was “binds”.

Results are given in words; binding and its absence hold for the method and conditions named. Binding seen in cells or lysates may run through a third protein. Here binding means that the protein was enriched with, or labelled near, the bait; the list need not be complete.
